Laboratory results taken from US20100222548A1 (priority 2006, published 2010).

Test: general procedure: solution-phase peptide synthesis

Substance	step yield (late stage modification step)	step yield (coupling step)
N-[(Benzyloxy)carbonyl]glycyl-N-isobutylglycylglycyl-N-isobutylglycylglycine	96%	–
N-[(Benzyloxy)carbonyl]glycyl-N-isobutylglycylglycyl-N-isobutylglycylglycine ethyl ester	–	67%
N-[(Benzyloxy)carbonyl]glycyl-N-isobutylglycylglycyl-N-isobutylglycylglycyl-N-isobutylglycylglycine	85%	–
N-[(Benzyloxy)carbonyl]glycyl-N-isobutylglycylglycyl-N-isobutylglycylglycyl-N-isobutylglycylglycyl-N-isobutylglycylglycine	94%	–
N-[(Benzyloxy)carbonyl]glycyl-N-isobutylglycylglycyl-N-isobutylglycylglycyl-N-isobutylglycylglycyl-N-isobutylglycylglycine ethyl ester	–	52%
